EP4559927A1, “CARRIER PEPTIDE FRAGMENT AND USE THEREOF” (Toagosei Co., Ltd., priority 2022, dated 2025)
Some results were stated once for a whole list of compounds, not compound by compound.

tested on: WS-1 cells; test: Evaluation on cell toxicity of carrier peptide fragment (CCK-8 cell viability); assay type: cell-based, human; conditions: sample concentration 100 µM, 24 hours, CCK-8, absorbance 450 nm, compared to 1.67% of DMSO control

Substance	cell viability
Ac-KKRTLRKDDEERKKR-FAM (N-acetyl, C-terminal FAM) [Example 5]	did not decrease
Ac-KKRTLRKEDEDEDRKKR-FAM (N-acetyl, C-terminal FAM) [Example 7]	did not decrease
Ac-KKRTLRKEDEDRKKR-FAM (N-acetyl, C-terminal FAM) [Example 3]	did not decrease
Ac-KKRTLRKEDRKKR-FAM (N-acetyl, C-terminal FAM) [Example 2]	did not decrease
Ac-KKRTLRKEEDDRKKR-FAM (N-acetyl, C-terminal FAM) [Example 4]	did not decrease
